Paper PMC7909379

Target: TIR-domain-containing adapter-inducing interferon-β (TRIF) (rat (endogenous in P rat nucleus accumbens))
Test: co-IP; protein extracts from the NAc of male and female P rats given 3α,5α-THP (15 mg/kg, IP, 30 min) or vehicle; immunoprecipitated with antibody to MyD88 or TRIF, immunoblotted for TLR4 or TLR7 (TLR7 in females only); normal IgG as immunoprecipitation control

B1: toll-like receptor 4 (TLR4) (receptor, UniProt Q9QX05 26-835)
chain: NPCIEVLPNITYQCMDQNLSKIPHDIPYSTKNLDLSFNPLKILRSYSFTNFSQLQWLDLSRCEIETIEDKAWHGLNQLSTLVLTGNPIKSFSPGSFSGLTNLENLVAVETKMTSLEGFHIGQLISLKKLNVAHNLIHSFKLPEYFSNLTNLEHVDLSYNYIQTISVKDLQFLRENPQVNLSLDLSLNPIDSIQAQAFQGIRLHELTLRSNFNSSNVLKMCLQNMTGLHVHRLILGEFKNERNLESFDRSVMEGLCNVSIDEFRLTYINHFSDDIYNLNCLANISAMSFTGVHIKHIADVPRHFKWQSLSIIRCHLKPFPKLSLPFLKSWTLTTNREDISFGQLALPSLRYLDLSRNAMSFRGCCSYSDFGTNNLKYLDLSFNGVILMSANFMGLEELEYLDFQHSTLKKVTEFSVFLSLEKLLYLDISYTNTKIDFDGIFLGLISLNTLKMAGNSFKDNTLSNVFTNTTNLTFLDLSKCQLEQISRGVFDTLYRLQLLNMSHNNLLFLDPSHYKQLYSLRTLDCSFNRIETSKGILQHFPKSLAVFNLTNNSVACICEYQNFLQWVKDQKMFLVNVEQMKCASPIDMKASLVLDFTNSTCYIYKTIISVSVVSVLVVATVAFLIYHFYFHLILIAGCKKYSRGESIYDAFVIYSSQNEDWVRNELVKNLEEGVPRFQLCLHYRDFIPGVAIAANIIQEGFHKSRKVIVVVSRHFIQSRWCIFEYEIAQTWQFLSSRSGIIFIVLEKVEKSLLRQQVELYRLLSRNTYLEWEDNALGRHIFWRRLKKALLDGKALNPDETSEEEQEATTLT
In the case of B1, the binding is reported as “binds”.

No constants are given. Whether binding was seen depends on the method and setting. Binding seen in cells or lysates may run through a third protein. A result given as binding can be weak or reduced; the word gives no strength.
